Part of at least one peptide drawing is inferred or uncertain, most often the ends.
How the values were obtained:
EGFP+OT1 cells = assay: In vivo CTL proliferation experiment; parameters: species or system mice; conditions: i.d. immunization twice with OVA-I peptide alone or with the named pertussis vaccine; one week after 2nd immunization, flow cytometry
EG7 and EL4 cells = tested on: EG7 and EL4 cells; parameters: species or system B6 mice; conditions: mouse

For `CC[C@H](C)[C@H](NC(=O)[C@@H](NC(=O)[C@@H](N)CO)[C@@H](C)CC)C(=O)N[C@@H](CC(N)=O)C(=O)N[C@@H](Cc1ccccc1)C(=O)N[C@@H](CCC(=O)O)C(=O)N[C@@H](CCCCN)C(=O)N[C@@H](CC(C)C)C(=O)O` [OVA-I peptide], the “mice with OVA-specific lysis” value (EG7 cells) was 10-20%, the “proliferation of OT1-TCR+, EGFP+ CD8 T cells in the spleen” value (EGFP+OT1 cells) was “proliferated to an observable level” and the “in vivo tumor proliferation” value (EG7 and EL4 cells) was “no significant effect on tumor proliferation”.
